Publication PMC6753146

The chains behind the UniProt entries cited, without tags or fusion partners.
UniProt Q567U6: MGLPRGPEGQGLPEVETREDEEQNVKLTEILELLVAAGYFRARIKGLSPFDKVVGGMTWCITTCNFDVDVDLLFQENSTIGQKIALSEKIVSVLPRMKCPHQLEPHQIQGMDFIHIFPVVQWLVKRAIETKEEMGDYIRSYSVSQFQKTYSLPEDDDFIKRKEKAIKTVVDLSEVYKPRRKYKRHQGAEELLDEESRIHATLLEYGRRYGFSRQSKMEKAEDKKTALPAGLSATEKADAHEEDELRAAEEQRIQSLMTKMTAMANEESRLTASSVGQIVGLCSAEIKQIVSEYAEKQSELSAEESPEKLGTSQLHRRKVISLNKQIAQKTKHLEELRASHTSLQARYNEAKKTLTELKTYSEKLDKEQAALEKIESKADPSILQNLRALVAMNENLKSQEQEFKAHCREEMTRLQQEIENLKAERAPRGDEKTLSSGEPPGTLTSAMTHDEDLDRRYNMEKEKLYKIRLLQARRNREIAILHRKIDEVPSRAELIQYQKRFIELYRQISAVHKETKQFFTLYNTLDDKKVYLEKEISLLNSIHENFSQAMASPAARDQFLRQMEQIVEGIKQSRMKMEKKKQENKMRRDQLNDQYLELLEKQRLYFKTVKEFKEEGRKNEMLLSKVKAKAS
UniProt O60826: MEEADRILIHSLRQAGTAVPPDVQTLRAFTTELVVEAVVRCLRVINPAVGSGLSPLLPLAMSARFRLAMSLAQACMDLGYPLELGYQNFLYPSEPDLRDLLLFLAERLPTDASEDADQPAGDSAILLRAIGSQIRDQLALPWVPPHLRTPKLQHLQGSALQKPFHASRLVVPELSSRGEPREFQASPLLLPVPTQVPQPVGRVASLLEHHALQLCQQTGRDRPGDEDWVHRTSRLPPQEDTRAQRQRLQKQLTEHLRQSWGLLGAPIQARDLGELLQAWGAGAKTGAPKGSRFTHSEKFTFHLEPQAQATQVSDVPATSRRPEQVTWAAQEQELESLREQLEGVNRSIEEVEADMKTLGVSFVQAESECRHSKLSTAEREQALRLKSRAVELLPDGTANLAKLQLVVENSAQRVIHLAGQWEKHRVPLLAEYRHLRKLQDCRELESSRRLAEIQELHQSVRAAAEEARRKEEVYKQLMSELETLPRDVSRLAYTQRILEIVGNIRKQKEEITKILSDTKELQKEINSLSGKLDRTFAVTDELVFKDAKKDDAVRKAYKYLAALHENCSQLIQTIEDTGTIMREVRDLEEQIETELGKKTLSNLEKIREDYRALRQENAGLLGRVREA

Tests used:
HA-tagged CCDC93 = HA-tagged CCDC93 (UniProt Q567U6); test: affinity purification with mass spectrometry; HA-tagged bait captured on HA-resin from Triton-X lysates of reconstituted knockout HeLa cells; washes with 350 mM NaCl; elution with HA peptide (1 mg/mL); LC/MS-MS; empty vector as control
HA-tagged VPS26C = HA-tagged VPS26C (UniProt O14972); test: as above

| binding (HA-tagged CCDC93) | binding (HA-tagged VPS26C) | Substance |
| --- | --- | --- |
| binds | – | CCDC22 (from UniProt O60826 1-627) |
| – | binds | FAM45A (from UniProt Q8TCE6 1-357) |

No constants are given. Whether binding was seen depends on the method and setting. Binding seen in cells or lysates may run through a third protein. Here binding means that the protein was enriched with, or labelled near, the bait; the list need not be complete.
